This series is described as follows: Modified MicroBCA assay of Cu(I) production from Cu(II). The following applies: 10 mM compound with CuSO4 5 mM; 37° C., 30 min.

These results are taken from patent US20230174690A1, “COMPOSITIONS AND METHODS FOR SINGLE-STEP MULTIPURPOSE SURFACE FUNCTIONALIZATION” (Rutgers, The State University of New Jersey, priority 2019, published 2023).

As for `C#CCOCCOCCNC(=O)[C@@H](N)Cc1ccc(O[Si](C)(C)C(C)(C)C)c(O[Si](C)(C)C(C)(C)C)c1` [S3, (5)-2-amino-3-(3,4-bis((tert-butyldimethylsilyl)oxy)phenyl)-N-(2-(2-(prop-2-yn-1-yloxy)ethoxy)ethyl)-propanamide], the “Cu(I) production (violet colour of the Cu(I)-BCA complex)” value is on record as “no color formation was observed”.
